Test results: publication PMC5993806
These are yes or no findings as the source states them, for the method shown. In cells and extracts the contact can be indirect. Binding can be weak; no strength is given. For part of these data: Tags and fused reporters may be left off the sequences shown.

By UniProt entry, the sequences of proteins in these tests, tags left out. Where a name states a change or a piece, a line headed by the entry shows the natural chain unless it says otherwise.
UniProt Q15172: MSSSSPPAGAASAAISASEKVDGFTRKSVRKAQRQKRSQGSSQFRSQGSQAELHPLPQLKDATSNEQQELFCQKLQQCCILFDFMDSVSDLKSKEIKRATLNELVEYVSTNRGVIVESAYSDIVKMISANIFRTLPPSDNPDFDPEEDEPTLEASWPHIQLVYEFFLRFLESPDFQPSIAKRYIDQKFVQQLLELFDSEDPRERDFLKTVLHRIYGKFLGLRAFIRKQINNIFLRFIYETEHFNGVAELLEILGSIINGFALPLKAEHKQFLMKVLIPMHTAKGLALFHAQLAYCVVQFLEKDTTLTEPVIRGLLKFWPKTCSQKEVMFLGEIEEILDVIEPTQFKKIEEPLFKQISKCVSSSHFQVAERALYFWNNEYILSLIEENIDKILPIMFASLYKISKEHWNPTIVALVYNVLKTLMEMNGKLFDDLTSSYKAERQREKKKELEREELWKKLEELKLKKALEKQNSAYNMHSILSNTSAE
UniProt Q9Y3Z3: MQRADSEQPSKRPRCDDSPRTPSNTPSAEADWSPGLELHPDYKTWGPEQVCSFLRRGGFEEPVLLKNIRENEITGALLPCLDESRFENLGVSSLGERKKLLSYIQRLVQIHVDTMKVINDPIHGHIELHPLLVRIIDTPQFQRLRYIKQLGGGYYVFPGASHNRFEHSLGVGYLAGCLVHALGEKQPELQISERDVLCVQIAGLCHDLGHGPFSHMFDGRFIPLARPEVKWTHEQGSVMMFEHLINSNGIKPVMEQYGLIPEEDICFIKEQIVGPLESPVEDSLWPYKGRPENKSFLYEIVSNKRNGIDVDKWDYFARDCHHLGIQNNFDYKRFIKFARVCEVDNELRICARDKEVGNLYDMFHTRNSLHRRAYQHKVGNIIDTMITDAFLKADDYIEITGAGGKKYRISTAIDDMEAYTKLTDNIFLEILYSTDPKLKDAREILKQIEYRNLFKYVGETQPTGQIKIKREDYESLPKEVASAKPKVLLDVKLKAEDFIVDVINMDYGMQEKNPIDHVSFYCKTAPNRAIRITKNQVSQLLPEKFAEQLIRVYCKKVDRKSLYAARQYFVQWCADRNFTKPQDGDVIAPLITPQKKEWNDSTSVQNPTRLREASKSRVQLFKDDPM
UniProt P67775: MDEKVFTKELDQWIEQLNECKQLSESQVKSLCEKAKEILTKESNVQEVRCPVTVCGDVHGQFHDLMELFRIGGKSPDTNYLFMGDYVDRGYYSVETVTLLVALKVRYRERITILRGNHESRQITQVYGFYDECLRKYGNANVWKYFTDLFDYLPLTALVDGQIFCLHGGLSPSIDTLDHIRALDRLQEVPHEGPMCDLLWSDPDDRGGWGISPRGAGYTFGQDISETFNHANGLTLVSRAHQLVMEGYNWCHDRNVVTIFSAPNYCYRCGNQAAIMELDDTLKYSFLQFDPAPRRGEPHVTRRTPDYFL

Columns and labels:
[1] = biological target: T1, GFP-tagged PP2A PR72 subunit (UniProt Q06190); assay: co-IP; GFP-trapping of GFP-tagged B-type subunits from transfected HEK293T cells; anti-PP2A C immunoblot of the retrieved complexes
T1 sequence: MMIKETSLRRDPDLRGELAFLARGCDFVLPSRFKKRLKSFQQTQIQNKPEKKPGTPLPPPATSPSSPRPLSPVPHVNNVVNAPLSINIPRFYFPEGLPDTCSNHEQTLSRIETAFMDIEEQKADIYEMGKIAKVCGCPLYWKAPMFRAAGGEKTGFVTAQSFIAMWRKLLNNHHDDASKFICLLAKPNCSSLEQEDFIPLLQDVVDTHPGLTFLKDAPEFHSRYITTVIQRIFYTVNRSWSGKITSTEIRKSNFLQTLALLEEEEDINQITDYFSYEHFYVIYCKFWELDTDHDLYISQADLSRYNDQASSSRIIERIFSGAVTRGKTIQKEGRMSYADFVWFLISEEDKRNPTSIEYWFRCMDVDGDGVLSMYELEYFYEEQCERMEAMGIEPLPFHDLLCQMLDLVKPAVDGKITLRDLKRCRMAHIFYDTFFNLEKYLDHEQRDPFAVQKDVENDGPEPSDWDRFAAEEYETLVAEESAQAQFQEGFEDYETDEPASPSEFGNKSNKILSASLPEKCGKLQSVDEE

[2] = biological target: GFP-tagged PP2A B56α subunit (UniProt Q15172); assay: as above
SAMHD1 T592E (human) = SAMHD1 T592E (human) (UniProt Q9Y3Z3); assay: co-IP
SAMHD1 T592A (human) = SAMHD1 T592A (human) (UniProt Q9Y3Z3); assay: co-IP
[3] = biological target: N-terminally FLAG-tagged SAMHD1 (human, wild type) (human) (UniProt Q9Y3Z3); assay: co-IP
SAMHD1 R451E (human) = SAMHD1 R451E (human) (UniProt Q9Y3Z3); assay: co-IP

Measured: binding

PP2A C subunit (from UniProt P67775) (enzyme)
binds: all assays above
